Experiment [1] concerns the target albumin (mouse liver, endogenous) (mouse (endogenous in mouse liver)) (UniProt P07724). As to the kind of experiment: affinity purification with mass spectrometry; mouse liver homogenised in RIPA buffer; anti-albumin IgG or isotype control IgG with protein-G agarose, 4 °C; mice fed normal or Western diet for 8 weeks; gel bands analysed by LC-MS/MS.
For experiment [2] the target is unchanged. The experiment is described as above. The source holds these as a separate data set.

Sequences of proteins named here, by UniProt entry; tags and fusion partners are left off. Residues count along the entry.
UniProt P07724, residues 25-608: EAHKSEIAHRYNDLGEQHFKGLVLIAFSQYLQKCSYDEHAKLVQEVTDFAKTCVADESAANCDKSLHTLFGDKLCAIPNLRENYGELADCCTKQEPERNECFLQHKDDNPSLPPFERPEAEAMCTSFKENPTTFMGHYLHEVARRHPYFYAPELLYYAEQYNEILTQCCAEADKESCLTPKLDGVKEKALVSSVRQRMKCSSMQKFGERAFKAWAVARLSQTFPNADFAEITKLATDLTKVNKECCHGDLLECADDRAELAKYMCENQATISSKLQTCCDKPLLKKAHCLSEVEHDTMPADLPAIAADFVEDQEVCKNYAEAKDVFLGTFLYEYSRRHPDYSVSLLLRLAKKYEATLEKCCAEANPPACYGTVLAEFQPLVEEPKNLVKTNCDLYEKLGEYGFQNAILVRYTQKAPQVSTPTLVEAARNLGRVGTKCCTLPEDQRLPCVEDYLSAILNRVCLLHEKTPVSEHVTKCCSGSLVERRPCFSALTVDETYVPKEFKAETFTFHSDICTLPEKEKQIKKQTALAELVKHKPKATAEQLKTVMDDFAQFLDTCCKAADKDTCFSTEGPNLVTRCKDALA
UniProt P97807, residues 42-507: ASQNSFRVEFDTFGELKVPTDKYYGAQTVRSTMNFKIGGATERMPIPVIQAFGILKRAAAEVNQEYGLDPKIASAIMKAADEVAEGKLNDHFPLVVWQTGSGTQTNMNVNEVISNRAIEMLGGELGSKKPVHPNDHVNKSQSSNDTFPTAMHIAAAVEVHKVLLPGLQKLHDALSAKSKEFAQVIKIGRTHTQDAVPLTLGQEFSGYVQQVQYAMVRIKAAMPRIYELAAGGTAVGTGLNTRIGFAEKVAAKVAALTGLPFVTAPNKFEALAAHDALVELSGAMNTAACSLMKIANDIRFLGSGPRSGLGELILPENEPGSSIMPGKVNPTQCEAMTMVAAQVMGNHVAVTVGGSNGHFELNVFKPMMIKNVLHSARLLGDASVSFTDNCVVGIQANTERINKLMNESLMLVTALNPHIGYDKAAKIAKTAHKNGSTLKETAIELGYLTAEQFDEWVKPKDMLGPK

Where two headings read alike, the source gives them in different places. No constants are given. Whether binding was seen depends on the method and setting. In cells and extracts the contact can be indirect. These calls come from enrichment with a bait or labelling near it, and not all partners need be listed.

As to “Fh (mouse liver, endogenous) (from UniProt P97807 42-507)”, in experiment [1], the binding entry was “binds”.

B1: carnitine palmitoyltransferase 2 (mouse liver, endogenous) (protein, UniProt P52825 26-658)
chain: SAVSGPAEYLQHSIVPTMHYQDSLPRLPIPKLEDTMKRYLSAQKPLLNDSQFRKTEVLCKDFENGIGKELHAHLLAQDKQNKHTSYISGPWFDMYLTARDSVVLNFNPFMAFNPDPKSEYNDQLTRATNLTVSAVRFLKTLRAGLLEPEVFHLNPARSDTDAFKRLIRFVPSSLSWYGAYLVNAYPLDMSQYFRLFNSTRIPKPSRDELFTDTKARHLLVLRKGHFYVFDVLDQDGNIVNPSEIQAHLKYILSDSSPVPEFPLAYLTSENRDVWAELRQKLIHGGNEETLRKVDSAVFCLCLDDFPMKDLVHLSHTMLHGDGTNRWFDKSFNLIVAKDGTAAVHFEHAWGDGVAVLRFFNEVFRDSTQTPAIAPQSQPAATDSSVSVQKLSFKLSSALKAGVTAAKEKFDATMKTLTIDAIQFQRGGKEFLKKKKLSPDAVAQLAFQMAFLRQYGQTVATYESCSTAAFKHGRTETIRPASIFTKRCSEAFVREPSKHSVGELQHMMAECSKYHGQLTKEAAMGQGFDRHLFALRYLAAARGVTLPELYQDPAYQRINHNILSTSTLSSPAVSLGGFAPVVPDGFGIAYAVHDDWIGCNVSSYSGRNAREFLHCVQKCLEDMFDALEGKAIKT
In the case of B1, the binding entry in experiment [2] is listed as “binds”.

The values are drawn from publication PMC10272166.
